PubChem BioAssay AID652243, Drosophila RNAi Screening Center | 2013
Test: 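Fly genes required for human androgen receptor driven transcription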 (primary screen). Cell system: Drosophila S2R+ cells. Reagent: long dsRNA against Drosophila genes. Time to read-out: 72 h (48 h, then 24 h hormone). Challenge: synthetic androgen R1881 at 10 nM for 24 h. Measurement: 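Per-well raw luminescence of the androgen-driven firefly reporter and of the Renilla control, two replicates each, without normalisation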. Reading the numbers: firefly reporter light: higher = more light from androgen-responsive reporter; Renilla control light: higher = more constitutive control signal (cell number, transfection). Rule for the call: 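Hit when the log firefly-to-Renilla ratio dropped or increased by a fixed fold versus the mean of GFP or LacZ controls across duplicate plates; lowering cut given as 1.5 and as 3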. Calls: active = hit: reporter lowered or raised; inactive = no hit.
In all, the deposit lists about 24,000 reagents; below is an unselected part of those that have a named target and a result. Of all reagents, 246 (1%) got an active call. 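Plates not normalised; calls are printed but the firefly/Renilla ratio behind them is not deposited; fold cut for lowering reported inconsistently.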 Raw values are not corrected between plates. Names joined by + are all predicted targets of the reagent. The record does not give: the amount of reagent.

target,DRSC id,"firefly reporter light, replicate 1","firefly reporter light, replicate 2","Renilla control light, replicate 1","Renilla control light, replicate 2",Call
CG8562,DRSC10995,58936,79453,1.14e6,1.11e6,inactive
CG8562,DRSC28778,1.04e6,1.13e6,1.61e6,1.78e6,inactive
slp1,DRSC00835,8.74e5,1.02e6,1.66e6,1.16e6,inactive
slp1,DRSC24204,3.68e5,2.70e5,1.02e6,6.24e5,inactive
Esp,DRSC16664,2.34e5,2.95e5,2.32e6,2.26e6,inactive
Lip2,DRSC02577,2.24e5,2.63e5,1.66e6,1.66e6,inactive
Lip2,DRSC02578,4.44e5,3.05e5,2.31e6,1.76e6,inactive
CG33770,DRSC11717,3.07e5,2.35e5,2.37e6,2.03e6,inactive
Achl,DRSC06665,66987,67356,6.80e5,6.80e5,inactive
Achl,DRSC29366,4.04e5,4.47e5,1.17e6,1.17e6,inactive
CG15111,DRSC21467,8.28e5,8.89e5,1.98e6,2.21e6,inactive
CG2200,DRSC19840,3.77e5,4.37e5,3.53e6,4.11e6,inactive
CG6052,DRSC10574,2.02e5,1.26e5,2.34e6,1.23e6,inactive
CG13116,DRSC02214,3.11e5,3.66e5,3.24e6,3.15e6,inactive
CG13116,DRSC21945,7.54e5,6.75e5,2.03e6,2.02e6,inactive
CG13116,DRSC26916,2.72e5,3.47e5,3.66e5,4.52e5,inactive
Or43b,DRSC07486,1.96e5,3.16e5,1.73e6,1.95e6,inactive
Or43b,DRSC29565,3.82e5,6.00e5,7.26e5,7.26e5,inactive
Polr1D + DCTN6-p27,DRSC02094,1.85e5,1.83e5,1.41e6,1.55e6,inactive
X11Lbeta,DRSC18156,1.82e5,1.33e5,2.43e6,2.60e6,inactive
X11Lbeta,DRSC18158,5.32e5,5.09e5,4.14e6,4.17e6,inactive
X11Lbeta,DRSC29533,2.22e5,2.90e5,4.57e5,4.57e5,inactive
Targ1,DRSC11616,3.43e5,3.49e5,2.75e6,3.17e6,inactive
Syn,DRSC16876,1.13e5,1.07e5,1.89e6,1.79e6,inactive
Syn,DRSC26448,2.32e5,1.56e5,4.82e5,4.57e5,inactive
CG10862,DRSC08170,85854,98390,1.14e6,1.18e6,inactive
CG34337,DRSC18435,3.98e5,5.44e5,3.94e6,4.42e6,inactive
Grl36a,DRSC21748,4.50e5,3.63e5,2.08e6,2.60e6,inactive
RasGAP1,DRSC11172,2.10e5,2.32e5,2.44e6,1.97e6,inactive
ProRS-m,DRSC08261,1.30e5,83271,1.24e6,8.92e5,inactive
ProRS-m,DRSC30008,3.81e5,3.42e5,1.11e6,1.22e6,inactive
Usp5,DRSC08244,1.45e5,2.37e5,2.14e6,2.52e6,inactive
Usp5,DRSC28531,1.66e5,4.07e5,6.01e5,1.01e6,inactive
CG33658,DRSC37833,1.65e6,1.20e6,3.12e6,2.77e6,inactive
CG10555,DRSC23202,9.31e5,8.38e5,1.10e6,1.23e6,inactive
CG10555,DRSC27738,2.75e5,2.74e5,6.81e5,8.25e5,inactive
CG8036,DRSC16366,1.20e5,82430,1.62e6,1.58e6,inactive
wwk,DRSC01941,1.38e5,1.55e5,1.56e6,1.60e6,inactive
CG2528,DRSC03724,2.32e5,1.69e5,1.79e6,1.37e6,inactive
GNBP-like3,DRSC06385,95127,1.27e5,1.66e6,1.89e6,inactive
Eato,DRSC01891,1.17e6,9.24e5,1.99e6,2.15e6,inactive
Eato,DRSC03061,3.11e5,3.16e5,1.41e6,1.58e6,inactive
TkR86C,DRSC16880,2.41e5,2.52e5,2.76e6,2.83e6,inactive
chif,DRSC03508,1.07e6,1.10e6,1.54e6,1.79e6,inactive
Snx3,DRSC16027,1.33e5,1.12e5,2.50e6,2.31e6,inactive
Snx3,DRSC28751,3.42e5,5.35e5,1.02e6,1.60e6,inactive
CG15336,DRSC18019,2.02e5,2.28e5,2.10e6,2.13e6,inactive
CG15336,DRSC28008,6.65e5,4.21e5,1.50e6,1.45e6,inactive
asRNA:CR30267,DRSC21628,8.35e5,7.48e5,2.64e6,2.12e6,inactive
Ugt303B1,DRSC15141,2.21e5,2.41e5,2.73e6,2.53e6,inactive
CG5509,DRSC15822,74480,1.09e5,1.11e6,1.60e6,inactive
Mics1,DRSC12537,61353,1.10e5,1.53e6,1.61e6,inactive
sicily,DRSC19704,2.99e5,2.12e5,3.74e6,4.29e6,active
CG8149,DRSC16391,1.81e5,2.09e5,3.73e6,3.59e6,inactive
RpS11,DRSC07289,4.46e5,3.57e5,3.95e6,3.13e6,inactive
RpS11,DRSC22700,3.28e5,3.87e5,4.69e5,5.39e5,inactive
CG43774 + CG43773,DRSC00287,1.18e5,79066,6.23e5,5.20e5,inactive
CG43774 + CG43773,DRSC00288,1.11e5,1.02e5,6.04e5,9.86e5,inactive
CG43774 + CG43773,DRSC26834,5.50e5,3.14e5,1.17e6,3.94e5,inactive

Quoted from the entries so far (4 entries):
target,DRSC id,"firefly reporter light, replicate 1","firefly reporter light, replicate 2","Renilla control light, replicate 1","Renilla control light, replicate 2",Call
CG2528,DRSC03724,2.32e5,1.69e5,1.79e6,1.37e6,inactive
GNBP-like3,DRSC06385,95127,1.27e5,1.66e6,1.89e6,inactive
Eato,DRSC01891,1.17e6,9.24e5,1.99e6,2.15e6,inactive
Eato,DRSC03061,3.11e5,3.16e5,1.41e6,1.58e6,inactive
